Results are given in words; binding and its absence hold for the method and conditions named. Binding seen in cells or lysates may run through a third protein. A yes stands for co-enrichment or nearness to the bait. Other partners may have been found.
Molecular target: APEX2-tagged TopBP1 (human) (UniProt Q92547)
Assay: proximity labelling; APEX2-tagged TopBP1 in 293 Flip-In or 293T cells, biotin phenol and H2O2, streptavidin pulldown and mass spectrometry; three experiments

Sequences of proteins named here, by UniProt entry; tags and fusion partners are left off.
UniProt Q92547: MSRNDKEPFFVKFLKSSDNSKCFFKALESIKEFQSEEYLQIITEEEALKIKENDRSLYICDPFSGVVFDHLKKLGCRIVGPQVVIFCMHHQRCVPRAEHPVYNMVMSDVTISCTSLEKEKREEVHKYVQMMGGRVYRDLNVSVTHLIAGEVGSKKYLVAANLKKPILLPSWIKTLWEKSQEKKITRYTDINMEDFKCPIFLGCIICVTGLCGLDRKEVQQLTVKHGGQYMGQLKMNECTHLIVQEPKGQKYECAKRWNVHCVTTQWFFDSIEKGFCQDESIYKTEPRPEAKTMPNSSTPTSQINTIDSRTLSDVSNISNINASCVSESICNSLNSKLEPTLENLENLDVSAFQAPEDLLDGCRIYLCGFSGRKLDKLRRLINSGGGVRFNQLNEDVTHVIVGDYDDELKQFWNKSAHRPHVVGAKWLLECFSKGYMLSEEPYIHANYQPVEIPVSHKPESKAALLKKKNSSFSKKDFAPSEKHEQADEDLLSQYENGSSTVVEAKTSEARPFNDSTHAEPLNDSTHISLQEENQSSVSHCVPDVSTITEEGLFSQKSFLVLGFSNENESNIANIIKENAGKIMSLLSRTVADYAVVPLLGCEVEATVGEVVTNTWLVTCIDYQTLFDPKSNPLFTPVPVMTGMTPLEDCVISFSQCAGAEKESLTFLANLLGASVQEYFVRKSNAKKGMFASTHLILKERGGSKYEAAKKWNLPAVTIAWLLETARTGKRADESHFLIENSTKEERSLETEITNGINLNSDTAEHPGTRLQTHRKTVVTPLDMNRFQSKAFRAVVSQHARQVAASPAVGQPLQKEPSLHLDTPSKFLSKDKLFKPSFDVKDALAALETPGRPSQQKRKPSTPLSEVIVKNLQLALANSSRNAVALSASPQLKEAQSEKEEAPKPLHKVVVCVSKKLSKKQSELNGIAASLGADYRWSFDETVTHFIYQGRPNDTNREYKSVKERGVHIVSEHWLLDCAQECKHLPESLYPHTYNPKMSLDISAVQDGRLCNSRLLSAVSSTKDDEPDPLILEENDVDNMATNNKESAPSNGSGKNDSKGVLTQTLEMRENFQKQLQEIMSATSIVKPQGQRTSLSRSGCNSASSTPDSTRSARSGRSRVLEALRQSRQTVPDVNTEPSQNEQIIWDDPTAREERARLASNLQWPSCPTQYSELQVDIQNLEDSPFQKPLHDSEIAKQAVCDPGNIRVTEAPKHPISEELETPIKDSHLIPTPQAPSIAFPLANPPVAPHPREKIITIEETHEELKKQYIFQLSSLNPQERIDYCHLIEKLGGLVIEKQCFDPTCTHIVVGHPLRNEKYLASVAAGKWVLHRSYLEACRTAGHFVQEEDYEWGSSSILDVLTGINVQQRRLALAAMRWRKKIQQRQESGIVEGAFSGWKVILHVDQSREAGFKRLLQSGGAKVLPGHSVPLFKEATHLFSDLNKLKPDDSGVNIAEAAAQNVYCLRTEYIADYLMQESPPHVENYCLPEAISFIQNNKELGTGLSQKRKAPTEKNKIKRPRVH

binding	Binder
binds	Psf2 (endogenous) (protein, UniProt Q9Y248 1-185) MDAAEVEFLAEKELVTIIPNFSLDKIYLIGGDLGPFNPGLPVEVPLWLAINLKQRQKCRLLPPEWMDVEKLEKMRDHERKEETFTPMPSPYYMELTKLLLNHASDNIPKADEIRTLVKDMWDTRIAKLRVSADSFVRQQEAHAKLDNLTLMEINTSGTFLTQALNHMYKLRTNLQPLESTQSQDF
binds	Psf3 (endogenous) (protein, UniProt Q9BRX5 1-216) MSEAYFRVESGALGPEENFLSLDDILMSHEKLPVRTETAMPRLGAFFLERSAGAETDNAVPQGSKLELPLWLAKGLFDNKRRILSVELPKIYQEGWRTVFSADPNVVDLHKMGPHFYGFGSQLLHFDSPENADISQSLLQTFIGRFRRIMDSSQNAYNEDTSALVARLDEMERGLFQTGQKGLNDFQCWEKGQASQITASNLVQNYKKRKFTDMED
